Reference: paper PMC12794188, “Maternal–Fetal Transfer and Toxicokinetics of 2,2′,5,5′-Tetrachlorobiphenyl, [^14C]-PCB52, Following Intratracheal Administration” (Chemical Research in Toxicology, 2025)
The source gives many values for each of these; only a part stands here.

Test: Toxicokinetics and tissue disposition of total [14C] radioactivity after a single intratracheal dose of [14C]-PCB52 (0.157 mg/kg) in pregnant rats at GD 11±1
Format: in vivo, Sprague–Dawley rats
Description: Female Sprague–Dawley rats (8 weeks old) weighing 237–269.7 g (mean = 247.5 g) (Envigo RMS, LLC, Indianapolis, IN) were used for this study. All animal experiments were performed following the protocols evaluated and approved by the University of Iowa Institutional Animal Care and Use Committee (approval number 3091097). After arrival, the animals were acclimated for 7 days. The animals were housed in a light and temperature-controlled environment with ad libitum access to food and water during quarantine and throughout the study. Timed pregnancy was achieved by harem mating. , Briefly, one male and two female rats were placed together in the evening and checked for vaginal plug the following day. If vaginal plug was present, the male was removed from the breeding cage, and the gestation day 0 (GD 0), 0-day post coitum was assigned. Pregnancies were confirmed by ultrasound scan at GD 9. The dams were exposed at GD 11 (±1 day) to capture the period of early organogenesis and hormonal function, which falls within week 3 of human embryonic development. ,− On the day of the experiment, pregnant rats were intratracheally administered an average of 40 μg (range, 35–45 μg) of [^14C]-PCB52 in 100 μL of exposure solution. Although the dose used in this study exceeded the tolerable daily intake (TDI) of PCBs for healthy individuals, which is 1.6 μg per day for an individual weighing 80 kg, the use of higher acute doses has been established in toxicological studies intended for risk assessment. The intratracheal instillation method was chosen for administering [^14C]-PCB52 to represent inhalation exposures, capture exhaled concentration, and efficiently utilize the limited availability of the cost-intensive radiolabeled PCB52. , Although inhalation exposure would better represent real-world exposures to airborne LC-PCBs, it would not allow us to accurately measure the amount of PCB52 exhaled into the air after exposure and is experimentally infeasible. […] All intratracheal instillations were done under light anesthesia, achieved using a 4% isoflurane concentration via a Fortec vaporizer (Cyprane, Keighley, UK). The animals recovered from anesthesia within 1 min. Subsequently, the animals were housed within a cylindrical glass chamber measuring 2 L in volume, equipped with glass drainage mechanisms to facilitate urine collection and a metallic screen to segregate urine from feces (as in Figure S1). Air was drawn from the chamber at 6.0 L/min through a cartridge containing the XAD-2 polymeric resin to capture any exhaled [^14C]-PCB52. For periods longer than 24 h postexposure, exposed dams were placed in a metabolic cage, which was fitted with a cartridge containing XAD-2 to capture exhaled [^14C]-PCB52 as in other end points.
Maternal blood, urine, and feces samples were collected immediately before and at 0.21, 1.67, 12, 24, 48, and 96 h after lung dosing. The exposed dams were euthanized using 4% isoflurane, followed by cervical dislocation and exsanguination via a cardiac puncture. Euthanasia was consistently performed during the light cycle. Dams’ fur was wiped and analyzed for radioactivity. Using the retro-orbital blood collection method, 0.5–1.5 mL ([…] of an exposed pregnant rat’s body weight) of blood sample was collected from each of the dams until the individual dams were necropsied for whole-body tissue harvesting. At the end of the exposure period, the chamber’s interior walls were rinsed separately with water and acetone/hexane (25 – 45 mL) and wiped to measure residues. From the collected whole blood samples, 100 μL were aliquoted into three vials each, and the remaining blood was allowed to clot at room temperature before being centrifuged to yield serum. The placentas, developing fetuses, and whole-body tissue samples were harvested immediately before exposure and at 0.21, 1.67, 12, 24, and 96 h postexposure. […]

[1] = Adipose tissue, 96 h post-exposure
[2] = Adrenal gland, 0.21 h post-exposure
[3] = Adrenal gland, 1.67 h post-exposure
[4] = Adrenal gland, 12 h post-exposure
[5] = Adrenal gland, 24 h post-exposure
[6] = Adrenal gland, 96 h post-exposure
[7] = Amniotic fluid, 0.21 h post-exposure
[8] = Amniotic fluid, 1.67 h post-exposure
[9] = Amniotic fluid, 12 h post-exposure
[10] = Amniotic fluid, 24 h post-exposure
[11] = Amniotic fluid, 96 h post-exposure
[12] = Lymph nodes, 0.21 h post-exposure
[13] = Lymph nodes, 1.67 h post-exposure
[14] = Lymph nodes, 12 h post-exposure
[15] = Lymph nodes, 24 h post-exposure
[16] = Lymph nodes, 96 h post-exposure
[17] = Matter in amp. colon, 0.21 h post-exposure
[18] = Matter in amp. colon, 1.67 h post-exposure
[19] = Matter in amp. colon, 12 h post-exposure
[20] = Matter in amp. colon, 24 h post-exposure
[21] = Matter in amp. colon, 96 h post-exposure
[22] = Matter in colon, 0.21 h post-exposure

SMILES: Clc1ccc(Cl)c(-c2cc(Cl)ccc2Cl)c1 [PCB52, 2,2′,5,5′-Tetrachlorobiphenyl]
- C96 (Adipose tissue): 115.14 dpm/mg
- Conc. per mg wet tissue (Adipose tissue, 24 h post-exposure): 33.52 dpm/mg
- Conc. per mg wet tissue [1]: 11.83 dpm/mg
- Percent tissue distribution [1]: 12.91%
- C96 (Adrenal gland): 33.10 dpm/mg
- Conc. per mg wet tissue [2]: 3.40 dpm/mg
- Percent tissue distribution [2]: 3.76%
- Conc. per mg wet tissue [3]: 0.35 dpm/mg
- Percent tissue distribution [3]: 0.08%
- Conc. per mg wet tissue [4]: 10.33 dpm/mg
- Percent tissue distribution [4]: 0.04%
- Conc. per mg wet tissue [5]: 5.68 dpm/mg
- Percent tissue distribution [5]: 0.02%
- Conc. per mg wet tissue [6]: 3.40 dpm/mg
- Percent tissue distribution [6]: 0.02%
- C96 (Amniotic Fluid): 0.12 dpm/mg
- Conc. per mg wet tissue [7]: 0.01 dpm/mg
- Percent tissue distribution [7]: 0.0024%
- Conc. per mg wet tissue [8]: 10.77 dpm/mg
- Percent tissue distribution [8]: 0.018%
- Conc. per mg wet tissue [9]: 0.06 dpm/mg
- Percent tissue distribution [9]: 0.0008%
- Conc. per mg wet tissue [10]: 0.12 dpm/mg
- Percent tissue distribution [10]: 0.0009%
- Conc. per mg wet tissue [11]: 0.01 dpm/mg
- Percent tissue distribution [11]: 0.0004%
- C96 (Bladder): 9.20 dpm/mg
- Conc. per mg wet tissue (Bladder, 0.21 h post-exposure): 0.00 dpm/mg
- Percent tissue distribution (Bladder, 0.21 h post-exposure): 0.01%
- Conc. per mg wet tissue (Bladder, 1.67 h post-exposure): 2.82 dpm/mg
- Percent tissue distribution (Bladder, 1.67 h post-exposure): 0.05%
- Conc. per mg wet tissue (Bladder, 12 h post-exposure): 1.20 dpm/mg
- Percent tissue distribution (Bladder, 12 h post-exposure): 0.01%
- Conc. per mg wet tissue (Bladder, 24 h post-exposure): 3.71 dpm/mg
- Percent tissue distribution (Bladder, 24 h post-exposure): 0.02%
- Conc. per mg wet tissue (Bladder, 96 h post-exposure): 0.00 dpm/mg
- C96 (Colon tissue): 18.20 dpm/mg
- C96 (Duodenum): 8.12 dpm/mg
- C96 (Esophagus): 2.43 dpm/mg
- C96 (Fetus): 0.57 dpm/mg
- Conc. per mg wet tissue (Fetus, 0.21 h post-exposure): 0.06 dpm/mg
- Percent tissue distribution (Fetus, 0.21 h post-exposure): 0.07%
- Conc. per mg wet tissue (Fetus, 1.67 h post-exposure): 2.02 dpm/mg
- Percent tissue distribution (Fetus, 1.67 h post-exposure): 0.08%
- Conc. per mg wet tissue (Fetus, 12 h post-exposure): 0.47 dpm/mg
- Percent tissue distribution (Fetus, 12 h post-exposure): 0.002%
- Conc. per mg wet tissue (Fetus, 24 h post-exposure): 0.19 dpm/mg
- Percent tissue distribution (Fetus, 24 h post-exposure): 0.03%
- Conc. per mg wet tissue (Fetus, 96 h post-exposure): 0.06 dpm/mg
- Percent tissue distribution (Fetus, 96 h post-exposure): 0.02%
- C96 (Heart): 1.80 dpm/mg
- Conc. per mg wet tissue (Heart, 0.21 h post-exposure): 24.66 dpm/mg
- Percent tissue distribution (Heart, 0.21 h post-exposure): 0.95%
- Conc. per mg wet tissue (Heart, 1.67 h post-exposure): 5.89 dpm/mg
- Percent tissue distribution (Heart, 1.67 h post-exposure): 0.32%
- Conc. per mg wet tissue (Heart, 12 h post-exposure): 3.15 dpm/mg
- Percent tissue distribution (Heart, 12 h post-exposure): 0.10%
- Conc. per mg wet tissue (Heart, 24 h post-exposure): 3.56 dpm/mg
- Percent tissue distribution (Heart, 24 h post-exposure): 0.08%
- Percent tissue distribution (Heart, 96 h post-exposure): 0.01%
- C96 (Kidney): 5.98 dpm/mg
- Conc. per mg wet tissue (Kidney, 0.21 h post-exposure): 40.98 dpm/mg
- Percent tissue distribution (Kidney, 0.21 h post-exposure): 2.47%
- Conc. per mg wet tissue (Kidney, 1.67 h post-exposure): 11.01 dpm/mg
- Percent tissue distribution (Kidney, 1.67 h post-exposure): 0.63%
- Conc. per mg wet tissue (Kidney, 12 h post-exposure): 2.65 dpm/mg
- Percent tissue distribution (Kidney, 12 h post-exposure): 0.30%
- Conc. per mg wet tissue (Kidney, 24 h post-exposure): 2.44 dpm/mg
- Percent tissue distribution (Kidney, 24 h post-exposure): 0.38%
- Conc. per mg wet tissue (Kidney, 96 h post-exposure): 0.53 dpm/mg
- Percent tissue distribution (Kidney, 96 h post-exposure): 0.08%
- C96 (Liver): 5.19 dpm/mg
- C96 (Lung): 14.01 dpm/mg
- Conc. per mg wet tissue (Lung, 0.21 h post-exposure): 6.22 dpm/mg
- Percent tissue distribution (Lung, 0.21 h post-exposure): 3.48%
- Conc. per mg wet tissue (Lung, 1.67 h post-exposure): 9.65 dpm/mg
- Percent tissue distribution (Lung, 1.67 h post-exposure): 1.40%
- Conc. per mg wet tissue (Lung, 12 h post-exposure): 6.35 dpm/mg
- Percent tissue distribution (Lung, 12 h post-exposure): 0.71%
- Conc. per mg wet tissue (Lung, 24 h post-exposure): 6.31 dpm/mg
- Percent tissue distribution (Lung, 24 h post-exposure): 0.58%
- Conc. per mg wet tissue (Lung, 96 h post-exposure): 1.70 dpm/mg
- Percent tissue distribution (Lung, 96 h post-exposure): 0.13%
- Conc. per mg wet tissue [12]: 9.72 dpm/mg
- Percent tissue distribution [12]: 0.02%
- Conc. per mg wet tissue [13]: 21.16 dpm/mg
- Percent tissue distribution [13]: 0.05%
- Conc. per mg wet tissue [14]: 23.12 dpm/mg
- Percent tissue distribution [14]: 0.04%
- Conc. per mg wet tissue [15]: 26.43 dpm/mg
- Percent tissue distribution [15]: 0.03%
- Conc. per mg wet tissue [16]: 4.53 dpm/mg
- Percent tissue distribution [16]: 0.02%
- C96 (Mammary glands): 44.06 dpm/mg
- C96 (Matter in Colon): 98.31 dpm/mg
- C96 (Matter in amp colon): 34.55 dpm/mg
- Conc. per mg wet tissue [17]: 2.42 dpm/mg
- Percent tissue distribution [17]: 0.12%
- Conc. per mg wet tissue [18]: 0.81 dpm/mg
- Percent tissue distribution [18]: 0.08%
- Conc. per mg wet tissue [19]: 32.64 dpm/mg
- Percent tissue distribution [19]: 2.61%
- Conc. per mg wet tissue [20]: 27.35 dpm/mg
- Percent tissue distribution [20]: 1.82%
- Conc. per mg wet tissue [21]: 3.55 dpm/mg
- Percent tissue distribution [21]: 0.30%
- Conc. per mg wet tissue [22]: 2.42 dpm/mg
- Percent tissue distribution [22]: 0.14%
- Conc. per mg wet tissue (Matter in colon, 1.67 h post-exposure): 1.23 dpm/mg
